Results on 20 sequences are retold here after the supplement of paper PMC10338343.

This assay concerns MIWI (PIWIL1) piRISC loaded with L1MC piRNA (30 nt). The experiment in a line: pre-steady-state target cleavage rate (min^-1); MIWI and MILI are mouse PIWI proteins and EfPiwi is from a freshwater sponge; tags in brackets are library labels; higher = faster piRNA-guided slicing of the target. To be noted: guide: L1MC piRNA 5'p-UAACUAAAUACUAUGCAAGCUGUAGGUCCU
In outline:
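A burst-and-steady-state fit was used to obtain the pre-steady-state cleavage rate. The input data were sequencing reads of uncleaved targets, normalised to depth and to weakly complementary targets, from a […] transcribed, DNA-blocked target RNA library mixed with 1 nM active affinity-purified piRISC holding one synthetic guide, with or without 500 nM GTSF1 partner protein, in HEPES–potassium acetate buffer at 33 °C for 0–8 or 0–960 min. Three trials were pooled and k3 was capped at 0.0001 min^-1.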

The mark [1] stands for this setting: auxiliary factor: 500 nM mouse GTSF1.
[2] abbreviates: auxiliary factor: none (no GTSF1).

± gives the standard deviation. The list shows a part of the results, in another mix than the full data. Many of these values have a large error.
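Also: 1 nM active piRISC with 0.1 nM target library at 33 °C single turnover.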

ACCACCUACAGCUUGCAUAGUAUUUAGUUA: the “pre-steady-state target cleavage rate” value by setting is: under setting [1], 1.16 ± 0.056; under setting [2], 0.0927 ± 0.017.

As for UGGACCUACAGGAAGCAUAGUAUUUAGUUA, the “pre-steady-state target cleavage rate” value is, setting by setting: under setting [1], 0.994 ± 0.094; under setting [2], 0.00926 ± 0.0024.

In the case of UCCUGGAUGUCGUUGCAUAGUUAUUUAGUUA, the “pre-steady-state target cleavage rate” value under setting [1] turned out to be 0.000971 ± 0.011 and the “pre-steady-state target cleavage rate” value under setting [2] worked out at 0.00186 ± 0.0049.

UGGACCUACAGCUUGCAUACUAUUUUCAAA: the “pre-steady-state target cleavage rate” value was found to be 0.0881 ± 0.021 under setting [1] and 0.00168 ± 0.0034 under setting [2].

UCCUGGAUGUCGAUGCCUAGUAUUUAGUUA: the “pre-steady-state target cleavage rate” value worked out at 0.000752 ± 0.01 under setting [1] and 0.000538 ± 0.011 under setting [2].

Regarding UCGACCUACAGCUUGCAUAGUAUUAACAAA, the “pre-steady-state target cleavage rate” value under setting [1] is 0.401 ± 0.044 and the “pre-steady-state target cleavage rate” value under setting [2] amounted to 0.00227 ± 0.0028.

In the case of UCGACCUAGAGCUUGCUUAGUAUUUAGUUA, the “pre-steady-state target cleavage rate” value under setting [1] was determined as 1.34 ± 0.048 and the “pre-steady-state target cleavage rate” value under setting [2] came out at 0.0282 ± 0.0063.

Take UGGACCUACAGCUUUCAUAGUAUUUAGUUA: the “pre-steady-state target cleavage rate” value under setting [1] was 0.593 ± 0.032 and the “pre-steady-state target cleavage rate” value under setting [2] is 0.0286 ± 0.0052.

In the case of AGGACCUACAGCUUGCAUUGUAUUUAGUUA, the “pre-steady-state target cleavage rate” value is, setting by setting: under setting [1], 0.926 ± 0.04; under setting [2], 0.0656 ± 0.015.

ACGACCAACAGCUUGCAUAGUAUUUAGUUA: the “pre-steady-state target cleavage rate” value reads like this: under setting [1], 1.64 ± 0.055; under setting [2], 0.0972 ± 0.018.

As for UGGACCUACAGCUUGCAUAGUAUUUAGUUUA, the “pre-steady-state target cleavage rate” value worked out at 1.56 ± 0.086 under setting [1] and 0.075 ± 0.014 under setting [2].

Regarding UGGACCUACAGCUUGCAUAGUAUUUUAGUUA, the “pre-steady-state target cleavage rate” value under setting [1] was determined as 1.38 ± 0.079 and the “pre-steady-state target cleavage rate” value under setting [2] came out at 0.0467 ± 0.012.

Take UCCUGGAUGUCGAAGCAUAGUACUUAGUUA: the “pre-steady-state target cleavage rate” value under setting [1] was 0.00198 ± 0.0044 and the “pre-steady-state target cleavage rate” value under setting [2] was 0.00125 ± 0.0043.

As for AGGACCUACUGCUUGCAUAGUAUUUAGUAA, the “pre-steady-state target cleavage rate” value by setting is: under setting [1], 0.861 ± 0.077; under setting [2], 0.0651 ± 0.012.

On to AGGUGGUACAGCUUGCAUAGUAUUUAGUAA, for which the “pre-steady-state target cleavage rate” value was found to be 0.645 ± 0.065 under setting [1] and 0.04 ± 0.0068 under setting [2].

As to UCCUGGAUGUCGAACGAUAGUUUUUAGUUA, the “pre-steady-state target cleavage rate” value under setting [1] was 0.000189 ± 0.021 and the “pre-steady-state target cleavage rate” value under setting [2] came out at 0.000171 ± 0.032.

Turning to ACGACCUACAGCUUGGAUAGUAUUUAGUUA, the “pre-steady-state target cleavage rate” value by setting is: under setting [1], 1.68 ± 0.067; under setting [2], 0.0728 ± 0.011.

In the case of UCCUGGAUGUCCUUGGUUAGUAUUUAGUUA, the “pre-steady-state target cleavage rate” value is, setting by setting: under setting [1], 0.00278 ± 0.0049; under setting [2], 0.0012 ± 0.0066.

Turning to UCCUGGAUCAGCUUGCAUAGUUUUUUCAAA, the “pre-steady-state target cleavage rate” value runs as follows: under setting [1], 0.00403 ± 0.0041; under setting [2], 0.00113 ± 0.0049.

Consider UCCUGGAUGUCGAACCAUACAAUUUAGUUA, for which the “pre-steady-state target cleavage rate” value is 0.000215 ± 0.015 under setting [1] and 0.000197 ± 0.022 under setting [2].
